Record: PubChem BioAssay AID1224830 (NIAID, 2016)
Assay: 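Genes whose knock-down alters the TNF-alpha reporter response to LPS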 (primary screen). Cell system: human THP-1 monocytic leukaemia cells, TNF dual-luciferase reporter clone, PMA-differentiated to macrophage-like cells. Reagent: siRNA pool against human genes, 50 nM. Time to read-out: LPS for 4 h, given about 3 days after siRNA transfection. Treatment: bacterial LPS (TLR4 ligand), 10 ng/ml. Read-out: 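Ratio of firefly to renilla light, scaled to the plate median and expressed as a robust z-score per replicate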. Reading the numbers: TNF reporter robust z-score: higher = stronger TNF reporter response to LPS. Active means: 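Each well counts as active if its z-score is over 2.8 or under -1.5; controls are left without a call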.
Here is a random part of about 18,000 reagents. About 2,900 of all reagents (16%) count as active. 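Calls are made per well; low scores hint the gene aids the LPS response, high scores that it dampens it.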 Repeated entries: four replicate wells of each siRNA pool.

target	TNF reporter robust z-score	Outcome
TUBA1C (tubulin alpha 1c)	-0.54	inactive
TUBA1C (tubulin alpha 1c)	-0.83	inactive
TUBA1C (tubulin alpha 1c)	-1.09	inactive
TUBA1C (tubulin alpha 1c)	-0.4	inactive
TSLIG3B (tRNA splicing ligase complex subunit 3B)	0.38	inactive
TSLIG3B (tRNA splicing ligase complex subunit 3B)	0.72	inactive
TSLIG3B (tRNA splicing ligase complex subunit 3B)	-0.34	inactive
TSLIG3B (tRNA splicing ligase complex subunit 3B)	0.01	inactive
HIPK2 (homeodomain interacting protein kinase 2)	0.31	inactive
HIPK2 (homeodomain interacting protein kinase 2)	1.07	inactive
HIPK2 (homeodomain interacting protein kinase 2)	2.4	inactive
HIPK2 (homeodomain interacting protein kinase 2)	1.79	inactive
NME1 (NME/NM23 nucleoside diphosphate kinase 1)	-0.17	inactive
NME1 (NME/NM23 nucleoside diphosphate kinase 1)	3.43	active
NME1 (NME/NM23 nucleoside diphosphate kinase 1)	-0.75	inactive
NME1 (NME/NM23 nucleoside diphosphate kinase 1)	0.6	inactive
MADD (MAP kinase activating death domain)	-1.09	inactive
MADD (MAP kinase activating death domain)	-1.43	inactive
MADD (MAP kinase activating death domain)	-1.62	active
MADD (MAP kinase activating death domain)	0.22	inactive
PNPLA6 (patatin like domain 6, lysophospholipase)	-0.73	inactive
PNPLA6 (patatin like domain 6, lysophospholipase)	-0.65	inactive
PNPLA6 (patatin like domain 6, lysophospholipase)	-0.4	inactive
PNPLA6 (patatin like domain 6, lysophospholipase)	-0.85	inactive
ZNF804B (zinc finger protein 804B)	-0.33	inactive
ZNF804B (zinc finger protein 804B)	0.8	inactive
ZNF804B (zinc finger protein 804B)	-0.19	inactive
ZNF804B (zinc finger protein 804B)	1.64	inactive
CC2D1A (coiled-coil and C2 domain containing 1A)	-1.16	inactive
CC2D1A (coiled-coil and C2 domain containing 1A)	-0.71	inactive
CC2D1A (coiled-coil and C2 domain containing 1A)	0.01	inactive
CC2D1A (coiled-coil and C2 domain containing 1A)	0.61	inactive
HMCN1 (hemicentin 1)	-0.32	inactive
HMCN1 (hemicentin 1)	-0.16	inactive
HMCN1 (hemicentin 1)	-0.66	inactive
HMCN1 (hemicentin 1)	0.19	inactive

A portion of the results above, for reference:
target	TNF reporter robust z-score	Outcome
CC2D1A (coiled-coil and C2 domain containing 1A)	0.01	inactive
CC2D1A (coiled-coil and C2 domain containing 1A)	0.61	inactive
HMCN1 (hemicentin 1)	-0.32	inactive
HMCN1 (hemicentin 1)	-0.16	inactive
HMCN1 (hemicentin 1)	-0.66	inactive

The listing continues:
target	TNF reporter robust z-score	Outcome
INSC (INSC spindle orientation adaptor protein)	-0.16	inactive
INSC (INSC spindle orientation adaptor protein)	0.18	inactive
INSC (INSC spindle orientation adaptor protein)	-0.06	inactive
INSC (INSC spindle orientation adaptor protein)	0.05	inactive
CNOT3 (CCR4-NOT transcription complex subunit 3)	-0.06	inactive
CNOT3 (CCR4-NOT transcription complex subunit 3)	-0.09	inactive
CNOT3 (CCR4-NOT transcription complex subunit 3)	-0.89	inactive
CNOT3 (CCR4-NOT transcription complex subunit 3)	0.28	inactive
SLC66A2	0.23	inactive
SLC66A2	1.31	inactive
SLC66A2	0.87	inactive
SLC66A2	0.95	inactive
SMURF1 (SMAD specific E3 ubiquitin protein ligase 1)	1.22	inactive
SMURF1 (SMAD specific E3 ubiquitin protein ligase 1)	0.75	inactive
SMURF1 (SMAD specific E3 ubiquitin protein ligase 1)	-0.34	inactive
SMURF1 (SMAD specific E3 ubiquitin protein ligase 1)	1.43	inactive
SSU72 (SSU72 homolog, RNA polymerase II CTD phosphatase)	0.9	inactive
SSU72 (SSU72 homolog, RNA polymerase II CTD phosphatase)	-0.78	inactive
SSU72 (SSU72 homolog, RNA polymerase II CTD phosphatase)	-1.18	inactive
SSU72 (SSU72 homolog, RNA polymerase II CTD phosphatase)	-1.32	inactive
LRRC4B (leucine rich repeat containing 4B)	-0.13	inactive
LRRC4B (leucine rich repeat containing 4B)	0.04	inactive
LRRC4B (leucine rich repeat containing 4B)	-0.6	inactive
LRRC4B (leucine rich repeat containing 4B)	-1.19	inactive
SLC25A17	0.71	inactive
SLC25A17	1.14	inactive
SLC25A17	0.43	inactive
SLC25A17	0.08	inactive
KCNJ5 (potassium inwardly rectifying channel subfamily J member 5)	0.2	inactive
KCNJ5 (potassium inwardly rectifying channel subfamily J member 5)	3.67	active
KCNJ5 (potassium inwardly rectifying channel subfamily J member 5)	3.47	active
KCNJ5 (potassium inwardly rectifying channel subfamily J member 5)	3.66	active
SNX21 (sorting nexin family member 21)	-0.94	inactive
SNX21 (sorting nexin family member 21)	-0.97	inactive
SNX21 (sorting nexin family member 21)	-1.39	inactive
SNX21 (sorting nexin family member 21)	-1.22	inactive
CRTAM (cytotoxic and regulatory T cell molecule)	0.35	inactive
CRTAM (cytotoxic and regulatory T cell molecule)	1.14	inactive
CRTAM (cytotoxic and regulatory T cell molecule)	0.06	inactive
CRTAM (cytotoxic and regulatory T cell molecule)	2.05	inactive
